According to the supplement of paper PMC10849652:
This is one part of the list.

Sequences of proteins named here, by UniProt entry; tags and fusion partners are left off. A change or cut given only in a name is not applied to a line headed by its entry.
UniProt Q9NU23: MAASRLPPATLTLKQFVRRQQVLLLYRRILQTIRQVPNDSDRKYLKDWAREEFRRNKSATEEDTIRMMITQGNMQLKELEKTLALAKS
UniProt Q9Y2E5: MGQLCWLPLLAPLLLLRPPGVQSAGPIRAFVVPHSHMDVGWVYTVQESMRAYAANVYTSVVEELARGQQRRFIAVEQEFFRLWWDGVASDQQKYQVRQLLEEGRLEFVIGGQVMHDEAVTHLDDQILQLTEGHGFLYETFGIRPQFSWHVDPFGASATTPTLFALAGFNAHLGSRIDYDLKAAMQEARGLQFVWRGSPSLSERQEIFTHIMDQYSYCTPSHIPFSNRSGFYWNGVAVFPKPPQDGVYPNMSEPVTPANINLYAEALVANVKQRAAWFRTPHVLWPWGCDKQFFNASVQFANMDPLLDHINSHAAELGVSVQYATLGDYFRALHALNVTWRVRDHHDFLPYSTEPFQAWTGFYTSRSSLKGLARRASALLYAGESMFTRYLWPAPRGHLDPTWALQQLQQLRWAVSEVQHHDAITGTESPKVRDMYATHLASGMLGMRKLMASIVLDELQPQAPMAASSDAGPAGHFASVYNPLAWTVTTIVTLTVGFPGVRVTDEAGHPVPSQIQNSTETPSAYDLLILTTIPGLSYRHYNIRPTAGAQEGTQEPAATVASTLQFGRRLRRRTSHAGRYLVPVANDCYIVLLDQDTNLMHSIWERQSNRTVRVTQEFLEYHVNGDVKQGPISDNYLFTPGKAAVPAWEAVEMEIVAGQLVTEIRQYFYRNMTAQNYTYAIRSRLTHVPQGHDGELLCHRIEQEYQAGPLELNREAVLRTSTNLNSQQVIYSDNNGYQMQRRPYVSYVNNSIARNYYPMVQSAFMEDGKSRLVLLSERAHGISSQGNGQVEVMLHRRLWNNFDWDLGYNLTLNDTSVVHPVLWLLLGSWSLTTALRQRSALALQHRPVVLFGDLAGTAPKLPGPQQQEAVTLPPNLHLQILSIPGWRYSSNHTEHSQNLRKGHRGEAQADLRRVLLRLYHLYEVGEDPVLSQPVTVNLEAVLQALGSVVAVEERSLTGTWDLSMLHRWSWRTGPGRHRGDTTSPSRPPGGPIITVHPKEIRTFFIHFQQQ
UniProt O60337: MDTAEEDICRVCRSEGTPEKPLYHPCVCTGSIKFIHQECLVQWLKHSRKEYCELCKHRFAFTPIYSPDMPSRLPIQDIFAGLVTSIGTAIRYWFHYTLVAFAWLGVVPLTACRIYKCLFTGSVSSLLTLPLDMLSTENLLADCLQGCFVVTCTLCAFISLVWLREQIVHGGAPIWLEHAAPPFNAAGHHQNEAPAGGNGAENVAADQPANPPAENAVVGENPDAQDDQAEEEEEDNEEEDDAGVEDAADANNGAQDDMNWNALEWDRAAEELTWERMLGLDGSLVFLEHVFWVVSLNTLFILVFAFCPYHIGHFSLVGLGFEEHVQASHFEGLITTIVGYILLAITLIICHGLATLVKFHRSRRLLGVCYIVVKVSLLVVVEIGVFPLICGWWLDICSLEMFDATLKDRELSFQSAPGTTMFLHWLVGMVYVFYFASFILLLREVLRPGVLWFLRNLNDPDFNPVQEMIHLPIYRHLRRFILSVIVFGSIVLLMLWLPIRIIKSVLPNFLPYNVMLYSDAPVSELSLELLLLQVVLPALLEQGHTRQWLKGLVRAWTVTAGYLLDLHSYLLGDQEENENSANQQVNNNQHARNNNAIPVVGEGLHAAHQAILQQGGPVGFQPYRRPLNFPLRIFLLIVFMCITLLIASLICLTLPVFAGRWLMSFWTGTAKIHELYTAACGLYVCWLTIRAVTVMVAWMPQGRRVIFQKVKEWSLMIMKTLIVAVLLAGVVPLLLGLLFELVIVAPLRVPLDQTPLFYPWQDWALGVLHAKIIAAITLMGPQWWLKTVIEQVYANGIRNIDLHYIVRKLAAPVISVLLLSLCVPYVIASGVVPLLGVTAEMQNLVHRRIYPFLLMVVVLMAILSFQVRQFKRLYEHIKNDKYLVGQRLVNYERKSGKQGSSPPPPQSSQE
UniProt Q9BRK4: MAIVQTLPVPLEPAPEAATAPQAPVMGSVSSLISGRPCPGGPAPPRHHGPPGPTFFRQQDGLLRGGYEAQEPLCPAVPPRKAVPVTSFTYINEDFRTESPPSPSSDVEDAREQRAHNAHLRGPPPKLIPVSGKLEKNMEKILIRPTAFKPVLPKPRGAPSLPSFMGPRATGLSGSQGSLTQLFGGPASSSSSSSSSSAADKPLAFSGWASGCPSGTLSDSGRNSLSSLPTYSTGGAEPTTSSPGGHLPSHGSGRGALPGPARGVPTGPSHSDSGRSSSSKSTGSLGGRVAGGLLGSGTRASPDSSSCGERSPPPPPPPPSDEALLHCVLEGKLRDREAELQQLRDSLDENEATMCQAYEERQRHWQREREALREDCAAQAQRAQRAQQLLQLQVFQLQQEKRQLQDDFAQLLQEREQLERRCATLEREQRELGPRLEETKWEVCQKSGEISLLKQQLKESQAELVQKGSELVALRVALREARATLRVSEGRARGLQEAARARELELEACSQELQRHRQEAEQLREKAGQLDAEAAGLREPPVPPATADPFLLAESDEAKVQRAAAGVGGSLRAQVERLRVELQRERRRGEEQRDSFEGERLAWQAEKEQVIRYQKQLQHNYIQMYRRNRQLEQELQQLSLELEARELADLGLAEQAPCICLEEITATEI
UniProt P53778: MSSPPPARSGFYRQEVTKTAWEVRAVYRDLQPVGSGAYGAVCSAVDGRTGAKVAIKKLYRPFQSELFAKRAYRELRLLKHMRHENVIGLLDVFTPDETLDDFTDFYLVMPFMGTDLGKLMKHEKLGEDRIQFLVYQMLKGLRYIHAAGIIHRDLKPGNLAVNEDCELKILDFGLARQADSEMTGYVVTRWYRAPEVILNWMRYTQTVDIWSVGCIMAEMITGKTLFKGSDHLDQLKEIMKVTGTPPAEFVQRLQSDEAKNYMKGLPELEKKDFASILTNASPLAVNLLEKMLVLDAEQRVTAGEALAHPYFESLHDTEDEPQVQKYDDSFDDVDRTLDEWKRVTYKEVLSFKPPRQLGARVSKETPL
UniProt Q6P0Q8: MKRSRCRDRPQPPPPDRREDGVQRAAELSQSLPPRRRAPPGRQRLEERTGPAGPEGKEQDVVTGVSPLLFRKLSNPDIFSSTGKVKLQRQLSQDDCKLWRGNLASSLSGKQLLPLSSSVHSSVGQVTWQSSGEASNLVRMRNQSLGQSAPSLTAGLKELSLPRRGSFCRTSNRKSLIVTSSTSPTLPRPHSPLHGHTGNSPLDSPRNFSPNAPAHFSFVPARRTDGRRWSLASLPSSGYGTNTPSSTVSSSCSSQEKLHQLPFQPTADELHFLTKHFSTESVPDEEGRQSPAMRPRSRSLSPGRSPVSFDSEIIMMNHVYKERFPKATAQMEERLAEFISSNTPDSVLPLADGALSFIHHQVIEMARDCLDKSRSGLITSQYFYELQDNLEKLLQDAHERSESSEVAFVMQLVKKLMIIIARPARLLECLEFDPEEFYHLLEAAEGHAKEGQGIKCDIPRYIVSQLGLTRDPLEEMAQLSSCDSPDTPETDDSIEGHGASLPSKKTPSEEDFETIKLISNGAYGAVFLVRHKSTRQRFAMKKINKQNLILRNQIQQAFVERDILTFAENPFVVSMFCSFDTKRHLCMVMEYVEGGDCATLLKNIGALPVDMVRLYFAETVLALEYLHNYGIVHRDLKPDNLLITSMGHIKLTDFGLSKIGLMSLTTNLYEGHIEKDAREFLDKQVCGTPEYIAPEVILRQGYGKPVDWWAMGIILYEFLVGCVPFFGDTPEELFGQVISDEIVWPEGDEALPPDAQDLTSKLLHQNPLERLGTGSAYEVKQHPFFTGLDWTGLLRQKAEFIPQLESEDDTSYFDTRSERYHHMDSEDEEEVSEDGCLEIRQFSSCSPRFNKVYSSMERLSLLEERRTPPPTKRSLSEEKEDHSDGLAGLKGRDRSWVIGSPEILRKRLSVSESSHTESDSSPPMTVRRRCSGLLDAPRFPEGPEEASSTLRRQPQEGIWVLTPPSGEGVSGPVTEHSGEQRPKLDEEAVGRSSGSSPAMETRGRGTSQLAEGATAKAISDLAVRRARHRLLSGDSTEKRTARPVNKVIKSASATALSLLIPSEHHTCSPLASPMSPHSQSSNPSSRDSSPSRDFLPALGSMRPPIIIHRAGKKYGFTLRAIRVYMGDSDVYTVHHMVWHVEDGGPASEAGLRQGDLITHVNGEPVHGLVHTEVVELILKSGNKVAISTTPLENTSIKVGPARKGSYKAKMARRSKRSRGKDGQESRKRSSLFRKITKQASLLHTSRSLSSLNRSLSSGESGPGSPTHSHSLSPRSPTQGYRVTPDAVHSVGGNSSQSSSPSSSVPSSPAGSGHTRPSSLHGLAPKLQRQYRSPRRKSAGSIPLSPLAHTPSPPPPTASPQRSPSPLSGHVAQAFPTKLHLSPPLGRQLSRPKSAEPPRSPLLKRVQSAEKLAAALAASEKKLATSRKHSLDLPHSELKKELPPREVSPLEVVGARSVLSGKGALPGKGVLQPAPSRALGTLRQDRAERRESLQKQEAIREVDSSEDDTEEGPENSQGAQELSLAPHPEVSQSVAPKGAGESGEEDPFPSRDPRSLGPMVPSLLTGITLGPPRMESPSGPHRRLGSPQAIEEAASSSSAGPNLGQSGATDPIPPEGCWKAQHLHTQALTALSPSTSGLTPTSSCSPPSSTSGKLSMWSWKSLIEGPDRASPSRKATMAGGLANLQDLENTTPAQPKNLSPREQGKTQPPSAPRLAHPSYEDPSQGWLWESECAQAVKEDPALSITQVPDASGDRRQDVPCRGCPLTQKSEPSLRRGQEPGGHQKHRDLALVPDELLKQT
UniProt O95819: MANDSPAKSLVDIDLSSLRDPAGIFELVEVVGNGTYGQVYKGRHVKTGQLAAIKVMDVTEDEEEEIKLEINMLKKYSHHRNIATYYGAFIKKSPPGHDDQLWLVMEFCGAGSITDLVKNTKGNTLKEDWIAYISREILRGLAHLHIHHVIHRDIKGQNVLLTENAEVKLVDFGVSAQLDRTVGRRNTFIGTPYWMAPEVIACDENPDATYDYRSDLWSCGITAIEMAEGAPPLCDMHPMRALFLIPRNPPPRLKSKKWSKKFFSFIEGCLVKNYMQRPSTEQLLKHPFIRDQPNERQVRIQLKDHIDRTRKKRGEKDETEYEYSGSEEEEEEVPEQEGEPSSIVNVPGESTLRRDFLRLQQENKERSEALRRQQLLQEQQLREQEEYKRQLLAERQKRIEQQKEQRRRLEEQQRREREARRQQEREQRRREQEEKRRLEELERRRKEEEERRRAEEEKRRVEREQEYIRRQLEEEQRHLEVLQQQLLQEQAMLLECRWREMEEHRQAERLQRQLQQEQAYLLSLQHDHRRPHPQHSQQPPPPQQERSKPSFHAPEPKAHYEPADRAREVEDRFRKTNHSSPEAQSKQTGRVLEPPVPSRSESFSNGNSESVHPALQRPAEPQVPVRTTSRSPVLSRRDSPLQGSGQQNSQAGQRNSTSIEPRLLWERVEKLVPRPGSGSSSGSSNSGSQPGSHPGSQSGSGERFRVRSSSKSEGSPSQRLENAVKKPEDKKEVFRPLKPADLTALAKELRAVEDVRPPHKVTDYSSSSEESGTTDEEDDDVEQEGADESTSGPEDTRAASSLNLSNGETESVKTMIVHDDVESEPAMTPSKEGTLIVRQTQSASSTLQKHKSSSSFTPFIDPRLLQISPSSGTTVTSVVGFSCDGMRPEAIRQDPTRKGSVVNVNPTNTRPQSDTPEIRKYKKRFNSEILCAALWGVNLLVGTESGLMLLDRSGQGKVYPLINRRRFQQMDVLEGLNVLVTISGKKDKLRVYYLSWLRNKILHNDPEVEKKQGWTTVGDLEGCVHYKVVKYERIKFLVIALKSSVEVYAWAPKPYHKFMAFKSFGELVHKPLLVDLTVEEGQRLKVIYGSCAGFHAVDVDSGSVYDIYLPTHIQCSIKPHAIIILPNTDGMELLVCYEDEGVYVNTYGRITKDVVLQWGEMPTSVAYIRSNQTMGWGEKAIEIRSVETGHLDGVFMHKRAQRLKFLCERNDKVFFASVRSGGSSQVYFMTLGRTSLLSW
UniProt O95232: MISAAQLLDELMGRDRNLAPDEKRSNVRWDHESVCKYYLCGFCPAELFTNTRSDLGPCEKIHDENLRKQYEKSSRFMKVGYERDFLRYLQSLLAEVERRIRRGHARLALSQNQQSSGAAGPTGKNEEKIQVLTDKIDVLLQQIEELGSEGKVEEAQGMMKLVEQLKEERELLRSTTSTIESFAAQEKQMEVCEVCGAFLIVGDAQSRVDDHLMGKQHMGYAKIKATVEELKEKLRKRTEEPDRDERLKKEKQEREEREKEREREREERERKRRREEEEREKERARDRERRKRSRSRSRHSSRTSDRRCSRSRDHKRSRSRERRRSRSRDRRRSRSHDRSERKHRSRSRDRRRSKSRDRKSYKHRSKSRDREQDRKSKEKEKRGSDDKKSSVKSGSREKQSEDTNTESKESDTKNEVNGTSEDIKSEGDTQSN

Key:
Assay in all cases: log2 fold change, soluble protein after heating vs DMSO (PISA); higher = thermal stabilisation; K562 lysate, 10 uM; active = over 0.2 and 3.5 SD of the protein, either way, in both replicates (recomputed)
[1] = compound: C=CC(=O)N1CCC[C@@H](n2nc(-c3ccc(Oc4ccccc4)cc3)c3c(N)ncnc32)C1 [ibrutinib]
Method in brief: (§1)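 Pellets of K562 cells were dounce-homogenised in PBS pH 7.4 with 1 mM MgCl2, and the crude extract was held at 1 mg/mL protein for a 30 min treatment with 10 μM compound. Aliquots were heated for 3 min over 48°C-58°C and pooled before NP-40 was added to 0.5% at 4°C. The supernatant from 21,000xg for 90 min was quantified by TMTpro 16plex LC-MS/MS with channel sums equalised. Values are reported from duplicates as log-two fold change in thermal stability relative to solvent controls.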

[2] = compound: CC(=O)c1cnc2ccc(-c3cc(Cl)c(O)c(Cl)c3)nc2c1N[C@H]1CC[C@H](CN(C)C)CC1
Method in brief: as §1

[3] = compound: CC(C)(C)Cn1c(N)nc2ccc(-c3[nH]c(C(C)(C)C)nc3-c3ccc(F)cc3)nc21 [ralimetinib]
Method in brief: as §1

[4] = compound: CC(C)(O)CC(=O)NCCn1ccc2ncnc(Nc3ccc(Oc4cccc(C(F)(F)F)c4)c(Cl)c3)c21
Method in brief: as §1

[5] = compound: CC(C)C1=C2N=C(C=C(N2N=C1)NCC3=CC=CC=C3)NCCCCCCN
Method in brief: as §1

[6] = compound: CC1=C(C(CC(=O)N1)C2=CC=C(C=C2)C(F)(F)F)C(=O)NC3=C(C=C4C(=C3)C=NN4)F
Method in brief: as §1

[7] = compound: CC1=C(C2=C(C=C1)C(=O)C3=CC=CC=C3N2CCCN)C
Method in brief: as §1

[8] = compound: CC1=C(C=C(C=C1)NC(=O)C2=CC(=CC=C2)C(C)(C)C#N)NC3=CC4=C(C=C3)N=CN(C4=O)C
Method in brief: as §1

[9] = compound: CC1=C(C=C(C=C1)NC(=O)C2=CC(=CC=C2)N(C)C)NC(=O)C3=CC=C(C=C3)O
Method in brief: as §1

[10] = compound: CC1=CC=C(C=C1)SC2=C3C=C(SC3=CN=C2)C(=O)N
Method in brief: as §1

| Target | log2 fold change [1] | log2 fold change [2] | log2 fold change [3] | log2 fold change [4] | log2 fold change [5] | log2 fold change [6] | log2 fold change [7] | log2 fold change [8] | log2 fold change [9] | log2 fold change [10] |
| --- | --- | --- | --- | --- | --- | --- | --- | --- | --- | --- |
| LYPLAL1 (UniProt Q5VWZ2) | inactive: 0.009 | inactive: -0.007 | inactive: -0.017 | inactive: -0.063 | inactive: 0 | inactive: -0.02 | inactive: -0.008 | inactive: 0.012 | inactive: -0.012 | inactive: -0.016 |
| MAML2 (UniProt Q8IZL2) | inactive: 0.12 | inactive: -0.286 | inactive: -0.049 | inactive: -0.051 | inactive: -0.08 | inactive: -0.021 | inactive: 0.118 | inactive: 0.001 | inactive: 0.047 | inactive: -0.115 |
| MAP3K4 (UniProt Q9Y6R4) | inactive: 0.046 | inactive: 0.19 | inactive: 0 | inactive: 0.005 | inactive: -0.039 | inactive: -0.015 | inactive: -0.012 | inactive: -0.006 | inactive: -0.001 | inactive: -0.027 |
| LYRM2 (UniProt Q9NU23) | inactive: 0.019 | inactive: -0.018 | inactive: -0.022 | inactive: -0.041 | inactive: -0.036 | inactive: -0.082 | inactive: -0.05 | inactive: -0.026 | inactive: -0.023 | inactive: -0.024 |
| LZTR1 (UniProt Q8N653) | inactive: -0.074 | inactive: -0.441 | inactive: -0.023 | inactive: 0.102 | inactive: 0.009 | inactive: 0.048 | inactive: -0.014 | inactive: -0.001 | inactive: 0.113 | inactive: 0.041 |
| MASTL (UniProt Q96GX5) | inactive: 0.02 | inactive: 0.161 | inactive: 0.014 | inactive: -0.022 | inactive: 0.004 | inactive: 0 | inactive: -0.041 | inactive: -0.023 | inactive: 0.089 | inactive: 0.027 |
| MAN2B2 (UniProt Q9Y2E5) | inactive: -0.019 | inactive: -0.026 | inactive: 0.008 | inactive: 0.083 | inactive: -0.051 | inactive: 0.056 | inactive: -0.013 | inactive: -0.013 | inactive: -0.024 | inactive: 0.012 |
| MAIP1 (UniProt Q8WWC4) | inactive: 0.007 | inactive: -0.01 | inactive: 0.068 | inactive: 0.021 | inactive: 0.026 | inactive: -0.022 | inactive: -0.007 | inactive: 0.023 | inactive: -0.011 | inactive: -0.017 |
| MAP3K20 (UniProt Q9NYL2) | inactive: -0.192 | inactive: -0.015 | inactive: 0.009 | inactive: -0.01 | inactive: 0.004 | inactive: -0.004 | inactive: 0.049 | inactive: -0.211 | inactive: -0.031 | inactive: -0.005 |
| MACF1 (UniProt E9PLY5) | inactive: 0.065 | inactive: 0.188 |  |  |  | inactive: -0.023 |  | inactive: -0.055 |  | inactive: 0.022 |
| MARCHF6 (UniProt O60337) | active: -0.395 | inactive: -0.021 |  |  | inactive: -0.012 | inactive: 0.014 | inactive: 0.101 | inactive: 0.004 |  | inactive: 0.032 |
| LZTS2 (UniProt Q9BRK4) | inactive: -0.078 | inactive: -0.016 |  |  | inactive: -0.039 | inactive: -0.085 | inactive: 0.025 | inactive: 0.033 |  | inactive: -0.038 |
| MAPRE3 isoform 2 (UniProt Q9UPY8) | inactive: -0.221 | inactive: 0.104 | inactive: -0.119 | inactive: 0.025 | inactive: 0.044 |  |  | inactive: -0.058 | inactive: -0.14 | inactive: -0.039 |
| MAPK12 (UniProt P53778) | inactive: 0.049 |  | inactive: -0.001 | inactive: -0.029 | inactive: -0.027 | inactive: 0.074 | inactive: 0.08 | inactive: 0.002 | inactive: -0.012 |  |
| MAGI3 isoform 1 (UniProt Q5TCQ9) | inactive: 0.093 | inactive: -0.015 | inactive: 0.022 | inactive: 0.105 | inactive: 0.044 | inactive: -0.106 | inactive: -0.111 |  | inactive: -0.02 | inactive: 0.005 |
| MAST2 (UniProt Q6P0Q8) | inactive: 0.136 | inactive: 0.054 | inactive: 0.033 | inactive: -0.084 | inactive: 0.071 |  | inactive: -0.157 | inactive: 0.03 | inactive: 0.031 | inactive: -0.022 |

Part of the list above, in CSV form:
Target,log2 fold change [1],log2 fold change [2],log2 fold change [3],log2 fold change [4],log2 fold change [5],log2 fold change [6],log2 fold change [7],log2 fold change [8],log2 fold change [9],log2 fold change [10]
MAPK12 (UniProt P53778),inactive: 0.049,,inactive: -0.001,inactive: -0.029,inactive: -0.027,inactive: 0.074,inactive: 0.08,inactive: 0.002,inactive: -0.012,
MAGI3 isoform 1 (UniProt Q5TCQ9),inactive: 0.093,inactive: -0.015,inactive: 0.022,inactive: 0.105,inactive: 0.044,inactive: -0.106,inactive: -0.111,,inactive: -0.02,inactive: 0.005

(cont.)

| Target | log2 fold change [1] | log2 fold change [2] | log2 fold change [3] | log2 fold change [4] | log2 fold change [5] | log2 fold change [6] | log2 fold change [7] | log2 fold change [8] | log2 fold change [9] | log2 fold change [10] |
| --- | --- | --- | --- | --- | --- | --- | --- | --- | --- | --- |
| MAPK11 (UniProt Q15759) | inactive: 0.072 | inactive: 0.221 | inactive: 0.521 | inactive: 0.007 | inactive: 0.262 | inactive: -0.241 |  | inactive: 0.302 | inactive: -0.067 | inactive: -0.311 |
| MAGED1 isoform 2 (UniProt Q9Y5V3) | inactive: 0.112 | inactive: -0.005 | inactive: 0.018 | inactive: -0.005 | inactive: -0.059 | inactive: 0.063 |  | inactive: 0.012 | inactive: 0.088 | inactive: 0.01 |
| MAML1 (UniProt Q92585) | inactive: -0.004 |  | inactive: 0.025 | inactive: -0.014 | inactive: 0.013 | inactive: 0.078 | inactive: 0.003 | inactive: -0.13 | inactive: -0.138 |  |
| MARF1 (UniProt Q9Y4F3) | inactive: 0.027 |  | inactive: 0.034 | inactive: -0.042 | inactive: -0.045 | inactive: -0.021 | inactive: 0.037 | inactive: 0.004 | inactive: 0.01 |  |
| MARCKSL1 (UniProt P49006) | inactive: -0.015 | inactive: 0.033 | inactive: -0.039 | inactive: 0.105 | inactive: -0.034 | inactive: -0.029 | inactive: 0.019 | inactive: -0.033 | inactive: -0.013 | inactive: 0.075 |
| MAP3K5 (UniProt Q99683) | inactive: -0.163 | inactive: -0.007 | inactive: 0.056 | inactive: -0.236 |  | inactive: 0.039 |  | inactive: 0.204 | inactive: 0.027 | inactive: 0.085 |
| MAP4K4 isoform 6 (UniProt O95819) | inactive: 0.056 | inactive: 0.001 | inactive: -0.19 | inactive: 0.027 | inactive: -0.021 |  | inactive: -0.127 |  | inactive: 0.002 | inactive: 0.037 |
| MAPRE3 (UniProt Q9UPY8) | inactive: -0.002 | inactive: 0.01 | inactive: 0.001 | inactive: 0.079 | inactive: 0.019 | inactive: 0.057 | inactive: 0.024 | inactive: -0.046 | inactive: 0.002 | inactive: 0.026 |
| LUC7L3 (UniProt O95232) | inactive: -0.033 | inactive: -0.023 | inactive: -0.002 | inactive: -0.002 | inactive: -0.001 | inactive: -0.006 | inactive: -0.021 | inactive: 0.03 | inactive: -0.015 | inactive: -0.044 |
| MACF1 (UniProt H3BQK9) | inactive: 0.001 | inactive: 0.02 | inactive: 0.003 | inactive: -0.004 | inactive: 0.022 | inactive: 0.012 | inactive: -0.051 | inactive: 0.008 | inactive: 0.016 | inactive: -0.007 |
| LZIC isoform 2 (UniProt Q8WZA0) | inactive: 0.005 | inactive: 0.016 | inactive: -0.025 | inactive: 0.049 | inactive: 0.013 | inactive: -0.009 | inactive: -0.016 | inactive: 0.01 | inactive: -0.03 | inactive: -0.025 |
| MAPKAPK2 (UniProt P49137) | inactive: 0.05 | active: 0.385 | inactive: -0.011 | inactive: 0.016 | inactive: -0.046 | inactive: 0.003 | inactive: 0.002 | inactive: -0.056 | inactive: 0.026 | inactive: 0 |
| LYRM4 (UniProt Q9HD34) | inactive: 0.015 | inactive: 0.034 | inactive: -0.036 | inactive: -0.042 | inactive: 0.017 | inactive: 0.017 | inactive: -0.027 | inactive: 0.109 | inactive: -0.034 | inactive: -0.009 |
| MAP4 (UniProt P27816) | inactive: 0.002 | inactive: -0.005 | inactive: -0.016 | inactive: -0.002 | inactive: 0.016 | inactive: -0.023 | inactive: -0.016 | inactive: 0.006 | inactive: -0.001 | inactive: -0.008 |
| LZTFL1 (UniProt Q9NQ48) | inactive: 0.006 | inactive: -0.002 | inactive: 0.028 | inactive: 0.019 | inactive: -0.008 | inactive: -0.009 | inactive: 0.012 | inactive: -0.021 | inactive: 0 | inactive: -0.007 |
